Record: PubChem BioAssay AID1259308 (NCATS, 2017)
Here is a random part of about 59,000 deposited reagents. Over the whole deposit, about 1,510 (2.6%) got an active call. 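Calls use total luciferase alone and ignore viability, so some active siRNAs may act by altering cell number.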 The numbers tell different reagents against one gene apart. Not all columns of the deposit are shown.

Test: 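Candidate targets for better recombinant protein yield in mammalian cells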 (primary screen)
System: human HEK293 embryonic kidney cells stably expressing firefly luciferase (HEK-CMV-Luc2-Hygro)
Knock-down reagent: single siRNA against human genes, 0.8 pmol siRNA per well
Duration: 72 h
Read-out: 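Luciferase light (ONE-Glo) measured on one replicate plate set and viability (CellTiter-Glo) on the other, scaled to a negative control siRNA, with robust z-scores and luciferase per cell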
Direction: total luciferase, z-score: higher = more reporter protein produced
Call rule: 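Active when the median/MAD z-score for overall luciferase is greater than 3; a gene was taken forward for validation with new siRNAs if at least two of its three siRNAs passed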
Meaning of the calls: active = raised luciferase; inactive = no rise

target	reagent	total luciferase, z-score	outcome
MRPL4 (mitochondrial ribosomal protein L4)	1	-0.774	inactive
MRPL4 (mitochondrial ribosomal protein L4)	2	-2.24	inactive
MRPL4 (mitochondrial ribosomal protein L4)	3	0.438	inactive
NRTN (neurturin)	1	0.467	inactive
NRTN (neurturin)	2	-0.242	inactive
NRTN (neurturin)	3	0.0693	inactive
UBE2R2 (ubiquitin conjugating enzyme E2 R2)	1	2.13	inactive
UBE2R2 (ubiquitin conjugating enzyme E2 R2)	2	1.2	inactive
UBE2R2 (ubiquitin conjugating enzyme E2 R2)	3	-0.671	inactive
CALCB (calcitonin related polypeptide beta)	1	0.323	inactive
CALCB (calcitonin related polypeptide beta)	2	-0.0997	inactive
CALCB (calcitonin related polypeptide beta)	3	0.3	inactive
DSP (desmoplakin)	1	-1.09	inactive
DSP (desmoplakin)	2	-1.44	inactive
DSP (desmoplakin)	3	0.272	inactive

Continued; the last 2 above are carried over.
target	reagent	total luciferase, z-score	outcome
DSP (desmoplakin)	2	-1.44	inactive
DSP (desmoplakin)	3	0.272	inactive
SLC2A12	1	1.05	inactive
SLC2A12	2	-0.353	inactive
SLC2A12	3	0.368	inactive
RTTN (rotatin)	1	0.698	inactive
RTTN (rotatin)	2	-0.334	inactive
RTTN (rotatin)	3	-1.08	inactive
TIPE2 (TNF alpha induced protein 8 like 2)	1	2	inactive
TIPE2 (TNF alpha induced protein 8 like 2)	2	0.15	inactive
TIPE2 (TNF alpha induced protein 8 like 2)	3	-0.805	inactive
